Reference: article PMC9555560, “Fast relaxing red and near-IR switchable azobenzenes with chalcogen and halogen substituents: periodic trends, tuneable thermal half-lives and chalcogen bonding” (Chemical Science, 2022)

Assay: E → Z photo-isomerisation with LEDs / photo-stationary state (PSS) determination
Format: physicochemical
Parameters: key to τ 1/2 (footnote symbol printed instead of a half-life: outcome under irradiation): Decomposed under irradiation with light.; No photo-switching observed
Settings: for τ 1/2 (footnote symbol printed instead of a half-life: outcome under irradiation): DMSO, 298 K
Method: The E → Z photo-isomerisation and half-life for the Z → E thermal isomerisation was evaluated for all derivatives (Fig. 7 and Table 1, see ESI ^† for original data). To our surprise, the half-lives for (Z)-X2,m-Y2 derivatives were in the order of hours to days for X = F and Cl: the effect of the meta group was not as drastic as anticipated. We typically observed a ∼4 fold decrease in half-life by substituting H with OMe, and a further 3-fold drop from OMe to NMe2 for X = F, Cl and SEt. The nature of the ortho-substituent appeared to be the main influence on τ1/2 (F > Cl ≫ SEt). However, these predictable trends observed for the meta-substitution allow for precise tuning of thermal half-lives. The photo-stationary states (PSSs) of these derivatives ranged from 48–77% Z isomer (Table 1).
Remarkably, it was possible to photo-switch the tetra-iodo derivative I4-ester using near-IR light (730 nm) (Fig. 8C). […] Photo-isomerisation was not detected for the ortho-telluro derivatives. This is consistent with findings by Haberhauer and co-workers, who propose that the strong chalcogen bonds in the E isomer of a PhTe-substituted azobenzene lead to dramatic energy differences between the E and Z isomers, which suppresses photoswitching.[43] The photo-stationary states of the halogen X4 derivatives range from 50–84% (Table 1) and could also be determined for the slower relaxing chalcogen derivatives (PSS 46–95%, see Fig. S308–S323 ^† for original data).
All UV-vis spectra were determined in DMSO solution. Extinction coefficients were determined by recording a UV-vis spectra for the E isomer at 10, 20, 30, 40 µM in DMSO respectively. The absorbance at the maximum of the π - π* transition of the E‐isomers was plotted against concentration (Beer-Lambert plot) to determine the molar extinction coefficient ε. For each slow relaxing compound, the E isomer sample at 40 µM was irradiated with the appropriate wavelength of light to generate the photo-stationary state, and another spectrum was run. This spectrum was normalised to units of ε and overlaid with the dark (100% E isomer) spectrum.
Deconvoluted spectra were prepared using Origin Pro 2020b by fitting each λmax to the “Multiple Peak […]
Photo-irradiation of liquid samples was carried out using Thorlabs high-power mounted LEDs (models […]
M530L4 (green, 530 nm); in-house custom built set-ups using optical components supplied by Thorlabs, as described in reference 2

CC(C)(C)OC(=O)NCc1ccc(/N=N/c2ccc(CNC(=O)OC(C)(C)C)cc2N2CCCC2)c(N2CCCC2)c1 [(N(CH2)4)2,m-H]
τ 1/2 (footnote symbol printed instead of a half-life: outcome under irradiation): ^c

COc1cc(CNC(=O)OC(C)(C)C)c(OC)c(F)c1/N=N/c1c(OC)cc(CNC(=O)OC(C)(C)C)c(OC)c1F [(OMe)2F2,m-OMe2-NHBoc]
τ 1/2 (footnote symbol printed instead of a half-life: outcome under irradiation): ^c

CCOP(=O)(OCC)c1ccccc1/N=N/c1ccccc1P(=O)(OCC)OCC [(PO(OEt)2)2,m-H]
τ 1/2 (footnote symbol printed instead of a half-life: outcome under irradiation): ^c

CCSc1cc(CNC(=O)OC(C)(C)C)c(OC)c(SCC)c1/N=N/c1c(SCC)cc(CNC(=O)OC(C)(C)C)c(OC)c1SCC [(SEt)4,m-OMe2-NHBoc]
τ 1/2 (footnote symbol printed instead of a half-life: outcome under irradiation): ^c

C[Se]c1cc(CNC(=O)OC(C)(C)C)cc([Se]C)c1/N=N/c1c([Se]C)cc(CNC(=O)OC(C)(C)C)cc1[Se]C [(SeMe)4-NHBoc]
Switching with 660 nm light: does not switch

C[Te]c1cccc([Te]C)c1/N=N/c1c([Te]C)cccc1[Te]C [(TeMe)4-H]
τ 1/2 (footnote symbol printed instead of a half-life: outcome under irradiation): ^d
Photo-switching / photo-isomerisation detected (room temperature, listed as Te4): No photo-switching was detected

CC(C)(C)OC(=O)NCc1cc(I)c(N=Nc2c(I)cc(CNC(=O)OC(C)(C)C)cc2I)c(I)c1 [I4-NHBoc]
Switching with 660 nm light: readily isomerise

CCOC(=O)c1cc(I)c(N=Nc2c(I)cc(C(=O)OCC)cc2I)c(I)c1 [I4-ester]
Switching with 660 nm light: readily isomerise

COc1cc(/N=N/c2cc(OC)c(CNC(=O)OC(C)(C)C)cc2OC)c(OC)cc1CNC(=O)OC(C)(C)C [OMe2,m-OMe2]
τ 1/2 (footnote symbol printed instead of a half-life: outcome under irradiation): ^c

C[Te]c1cccc(F)c1/N=N/c1c(F)cccc1[Te]C [Te2F2-H]
τ 1/2 (footnote symbol printed instead of a half-life: outcome under irradiation): ^d
